Measured values: article PMC9873573, “Cryo-EM structure of the respiratory I + III2 supercomplex from Arabidopsis thaliana at 2 Å resolution” (Nature Plants, 2022)
Results are given in words; binding and its absence hold for the method and conditions named. Binding can be weak; no strength is given.

Protein sequences, listed by entry. Tags and fused reporters are not part of them. Lines headed by an entry give the natural chain unless they say otherwise; changes in a name come on top.
UniProt F4HTR4: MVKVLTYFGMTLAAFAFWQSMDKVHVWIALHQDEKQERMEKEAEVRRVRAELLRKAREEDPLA

Key:
Assay in all cases: cryo-EM structure; native I + III2 supercomplex isolated from digitonin-solubilised Arabidopsis mitochondria (sucrose gradient, Superose 6 in GDN); 30 mM Tris-HCl pH 7.4, 60 mM NaCl, 0.02% GDN; 2.36 Å for the whole supercomplex, 2.03 Å after multibody refinement, 1.9 Å after density modification; both purified
[1] = biological target: T1, complex I core subunit ND6 (Arabidopsis thaliana (endogenous in cell suspension culture)) (UniProt P60497)
T1 sequence: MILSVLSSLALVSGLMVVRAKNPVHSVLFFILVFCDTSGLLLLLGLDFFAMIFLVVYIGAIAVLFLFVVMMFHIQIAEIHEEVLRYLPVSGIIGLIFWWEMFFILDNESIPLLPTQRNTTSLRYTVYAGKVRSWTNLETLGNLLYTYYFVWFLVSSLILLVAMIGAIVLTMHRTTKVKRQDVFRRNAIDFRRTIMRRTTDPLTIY

[2] = biological target: T2, complex III subunit QCR6-1 (Arabidopsis thaliana (endogenous in cell suspension culture)) (UniProt Q0WWE3)
T2 sequence: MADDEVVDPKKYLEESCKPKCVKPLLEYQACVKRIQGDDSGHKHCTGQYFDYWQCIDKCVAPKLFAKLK

[3] = biological target: T3, complex I core subunit ND2 (Arabidopsis thaliana (endogenous in cell suspension culture)) (UniProt O05000)
T3 sequence: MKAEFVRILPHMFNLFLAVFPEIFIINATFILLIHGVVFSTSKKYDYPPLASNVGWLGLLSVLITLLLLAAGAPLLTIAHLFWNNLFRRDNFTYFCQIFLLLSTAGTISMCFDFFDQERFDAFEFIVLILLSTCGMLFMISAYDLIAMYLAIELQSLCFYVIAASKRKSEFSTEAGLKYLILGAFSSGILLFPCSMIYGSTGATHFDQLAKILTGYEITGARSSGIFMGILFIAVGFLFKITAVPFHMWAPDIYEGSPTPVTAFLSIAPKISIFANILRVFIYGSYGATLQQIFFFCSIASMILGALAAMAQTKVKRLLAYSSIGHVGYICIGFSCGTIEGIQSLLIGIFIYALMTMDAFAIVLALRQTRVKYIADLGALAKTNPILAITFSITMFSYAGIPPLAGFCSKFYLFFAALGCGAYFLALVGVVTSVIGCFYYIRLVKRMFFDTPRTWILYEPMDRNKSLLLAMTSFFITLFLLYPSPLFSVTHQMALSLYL

[4] = biological target: T4, complex I core subunit ND5 (Arabidopsis thaliana (endogenous in cell suspension culture)) (UniProt P29388)
T4 sequence: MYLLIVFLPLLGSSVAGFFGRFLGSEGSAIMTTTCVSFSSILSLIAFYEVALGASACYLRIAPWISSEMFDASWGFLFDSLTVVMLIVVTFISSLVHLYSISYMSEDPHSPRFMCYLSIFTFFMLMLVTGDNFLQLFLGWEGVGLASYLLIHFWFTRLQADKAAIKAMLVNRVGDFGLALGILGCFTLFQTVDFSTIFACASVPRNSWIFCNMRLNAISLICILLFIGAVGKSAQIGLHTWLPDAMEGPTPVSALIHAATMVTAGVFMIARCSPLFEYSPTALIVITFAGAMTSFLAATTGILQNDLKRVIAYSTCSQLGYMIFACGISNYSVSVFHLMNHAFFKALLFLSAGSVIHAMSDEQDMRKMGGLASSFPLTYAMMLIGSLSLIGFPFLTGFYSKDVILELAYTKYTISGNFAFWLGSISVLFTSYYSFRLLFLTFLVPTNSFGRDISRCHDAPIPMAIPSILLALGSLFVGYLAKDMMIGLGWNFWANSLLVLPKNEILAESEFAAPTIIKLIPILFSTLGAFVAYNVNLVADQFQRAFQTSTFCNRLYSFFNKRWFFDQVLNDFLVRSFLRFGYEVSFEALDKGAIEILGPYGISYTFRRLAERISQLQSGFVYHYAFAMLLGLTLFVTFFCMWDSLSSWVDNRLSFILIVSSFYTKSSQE

Question: “complex I subunit P9 (from UniProt F4HTR4)” was tested. Which binding [1] did it give?
Answer: The binding was “binds”.

Question: What about the binding [2] of the same substance?
Answer: Its binding is “binds”.

Question: What does the source list for complex I-ferredoxin (C1-FDX)?
Answer: binding [3]: binds; binding [4]: binds
